Laboratory results reported in US7935694B2, “Lactam compounds useful as protein kinase inhibitors” (Millennium Pharmaceuticals, Inc., priority 2004, dated 2011).
pIC50: −log10 of the molar value. Some results were stated once for a whole list of compounds, not compound by compound.

Target: T1, recombinant murine Aurora A enzyme (Mus musculus, UniProt P97477)
T1 construct: hexahistidine (His6) (N); made in house; host or cells: insect cells (baculovirus, Bac-to-Bac)
T1 sequence (P97477 1-395): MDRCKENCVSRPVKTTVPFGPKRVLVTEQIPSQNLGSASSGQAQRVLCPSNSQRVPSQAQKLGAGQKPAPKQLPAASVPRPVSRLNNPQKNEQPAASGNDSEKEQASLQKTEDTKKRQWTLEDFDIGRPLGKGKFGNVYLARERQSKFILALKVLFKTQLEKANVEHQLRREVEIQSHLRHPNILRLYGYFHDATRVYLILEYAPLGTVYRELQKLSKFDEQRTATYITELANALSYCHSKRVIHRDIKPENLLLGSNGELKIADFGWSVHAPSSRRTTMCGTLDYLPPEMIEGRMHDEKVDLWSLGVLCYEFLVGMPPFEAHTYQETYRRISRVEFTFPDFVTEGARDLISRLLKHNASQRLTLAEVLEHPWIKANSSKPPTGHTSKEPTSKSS
Assay: Aurora A DELFIA Kinase Assay
Type: biochemical
Conditions: 1 mM ATP, 20 nM enzyme, 10 minutes at room temperature
Method: Recombinant mouse Aurora A with an amino-terminus hexahistidine tag (His-Aurora A) was expressed using a standard baculovirus vector and insect cell expression system (Bac-to-Bac®, Invitrogen). Soluble, recombinant mouse Aurora A was purified from insect cells using Ni-NTA agarose (Qiagen) as described by the manufacturer and further purified over an S75 size exclusion column (Amersham Pharmacia Biotech). The mouse Aurora A enzymatic reaction totaled 25 μL and contained 25 mM Tris-HCl (pH 8.5), 2.5 mM MgCl2, 0.05% Surfact-AMPS-20, 5 mM Sodium Fluoride, 5 mM DTT, 1 mM ATP, 3 μM peptide substrate (Biotin-β-[…]), and 20 nM recombinant murine Aurora A enzyme. The enzymatic reaction mixture, with and without Aurora inhibitors, was incubated for 10 minutes at room temperature before termination with 100 μL of stop buffer (1% BSA, 0.05% Surfact-AMPS-20, and 100 mM EDTA). A total of 100 μL of the enzyme reaction mixture was transferred to wells of a Neutravidin-coated 96-well plate (Pierce) and incubated at room temperature for 30 minutes. The wells were washed with wash buffer (25 mM Tris, 150 mM sodium chloride, and 0.1% Tween 20) and incubated for 1 hour with 100 μL of antibody reaction mixture containing 1% BSA, 0.05% Surfact-AMPS-20, anti-phospho-PKA rabbit polyclonal antibody (1:2000, New England Biolabs), and europium labeled anti-rabbit IgG (1:2000, Perkin Elmer). The wells were washed and then the bound europium was liberated using 100 μL of Enhancement Solution (Perkin Elmer). Quantification of europium was done using a WallacTM EnVision (Perkin Elmer).

## N#CCc1cccc(Nc2ncc3c(n2)-c2ccc(Cl)cc2NC(=O)C3)c1 [Compound I-78, [3-(9-Chloro-6-oxo-6,7-dihydro-5H-benzo[b]pyrimido[4,5-d]azepin-2-ylamino)-phenyl]-acetonitrile]
  pIC50: ≥ 5.30

## NCCc1cccc(Nc2ncc3c(n2)-c2ccc(Cl)cc2NC(=O)C3)c1 [Compound I-86, 2-[3-(2-Amino-ethyl)-phenylamino]-9-chloro-5H,7H-benzo[b]pyrimido[4,5-d]azepin-6-one]
  pIC50: ≥ 5.30

## COc1ccc(Nc2ncc3c(n2)-c2ccc(Cl)cc2NC(=O)C3)cc1O [Compound I-65, 9-Chloro-2-(3-hydroxy-4-methoxy-phenylamino)-5H,7H-benzo[b]pyrimido[4,5-d]azepin-6-one]
  pIC50: ≥ 5.30

## COc1ccc(Nc2ncc3c(n2)-c2ccc(C)cc2NC(=O)C3)cc1OC [Compound I-42, 2-(3,4-Dimethoxy-phenylamino)-9-methyl-5H,7H-benzo[b]pyrimido[4,5-d]azepin-6-one]
  pIC50: ≥ 5.30

## O=C1Cc2cnc(Nc3ccc4c(c3)OCCO4)nc2-c2ccc(Cl)cc2N1 [Compound I-28, 9-Chloro-2-(2,3-dihydro-benzo[1,4]dioxin-6-ylamino)-5H,7H-benzo[b]pyrimido[4,5-d]azepin-6-one]
  pIC50: ≥ 5.30

## NCC#Cc1cccc(Nc2ncc3c(n2)-c2ccc(Cl)cc2NC(=O)C3)c1 [Compound I-67, 2-[3-(3-Amino-prop-1-ynyl)-phenylamino]-9-chloro-5H,7H-benzo[b]pyrimido[4,5-d]azepin-6-one]
  pIC50: ≥ 5.30

## COc1ccc(Nc2ncc3c(n2)-c2ccc(C(N)=O)cc2NC(=O)C3)cc1OC [Compound I-70, 2-(3,4-dimethoxy-phenylamino)-6-oxo-6,7-dihydro-5H-benzo[b]pyrimido[4,5-d]azepine-9-carboxylic acid amide]
  pIC50: ≥ 5.30

## O=C1Cc2cnc(Nc3cccc(CO)c3)nc2-c2ccc(Cl)cc2N1 [Compound I-79, 9-Chloro-2-(3-hydroxymethyl-phenylamino)-5H,7H-benzo[b]pyrimido[4,5-d]-azepine-6-one]
  pIC50: ≥ 5.30

## NCCCNC(=O)c1cccc(Nc2ncc3c(n2)-c2ccc(Cl)cc2NC(=O)C3)c1 [Compound I-63, N-(3-Amino-propyl)-3-(9-chloro-6-oxo-6,7-dihydro-5H-benzo[b]pyrimido[4,5-d]azepin-2-ylamino)-benzamide]
  pIC50: ≥ 5.30

## COc1ccc(Nc2ncc3c(n2)-c2cccnc2NC(=O)C3)cc1OC [Compound I-1, 2-(3,4-Dimethoxy-phenylamino)-5,7-dihydro-1,3,7,8-tetraaza-dibenzo[a,c]cyclohepten-6-one]
  pIC50: ≥ 5.30

## COc1ccc(Nc2ncc3c(n2)-c2ccccc2NC(=O)C3)cc1OC [Compound I-27, 2-(3,4-Dimethoxy-phenylamino)-5H,7H-benzo[b]pyrimido[4,5-d]azepin-6-one]
  pIC50: ≥ 5.30

## COc1ccc(Nc2ncc3c(n2)-c2cc(CCCN)ccc2NC(=O)C3)cc1OC [Compound I-60, 10-(3-Amino-propyl)-2-(3,4-dimethoxy-phenylamino)-5H,7H-benzo[b]pyrimido[4,5-d]azepin-6-one]
  pIC50: ≥ 5.30

## COc1ccc(Nc2ncc3c(n2)-c2ccc(CCCN4CCCC4)cc2NC(=O)C3)cc1OC [Compound I-49, 2-(3,4-Dimethoxy-phenylamino)-9-(3-pyrrolidin-1-yl-propyl)-5H,7H-benzo[b]-pyrimido[4,5-d]azepin-6-one]
  pIC50: ≥ 5.30

## COc1ccc(Nc2ncc3c(n2)-c2cc(CCCN4CCCC4)ccc2NC(=O)C3)cc1OC [Compound I-56, 2-(3,4-Dimethoxy-phenylamino)-10-(3-pyrrolidin-1-yl-propyl)-5H,7H-benzo[b]pyrimido[4,5-d]azepin-6-one]
  pIC50: ≥ 5.30

## COc1ccc(Nc2ncc3c(n2)-c2ccc(CCCN)cc2NC(=O)C3)cc1OC [Compound I-50, 9-(3-Amino-propyl)-2-(3,4-dimethoxy-phenylamino)-5H,7H-benzo[b]pyrimido[4,5-d]azepin-6-one]
  pIC50: ≥ 5.30

## CCCc1ccc2c(c1)NC(=O)Cc1cnc(Nc3ccc(OC)c(OC)c3)nc1-2 [Compound I-82, 2-(3,4-Dimethoxy-phenylamino)-9-propyl-5H,7H-benzo[b]pyrimido[4,5-d]azepin-6-one]
  pIC50: ≥ 5.30

## CNCCCc1ccc2c(c1)NC(=O)Cc1cnc(Nc3ccc(OC)c(OC)c3)nc1-2 [Compound I-87, 2-(3,4-Dimethoxy-phenylamino)-9-(3-methylamino-propyl)-5H,7H-benzo[b]pyrimido[4,5-d]azepin-6-one]
  pIC50: ≥ 5.30

## O=C(O)c1ccc(Nc2ncc3c(n2)-c2ccc(Cl)cc2N(c2ccccc2)C(=O)C3)cc1 [Compound I-10, 4-(9-Chloro-6-oxo-7-phenyl-6,7-dihydro-5H-benzo[b]pyrimido[4,5-d]azepin-2-ylamino)-benzoic acid]
  pIC50: ≥ 5.30

## COc1ccc(Nc2ncc3c(n2)-c2ccc(Cl)cc2NC(=O)C3)cc1OC [Compound I-2, 9-Chloro-2-(3,4-dimethoxy-phenylamino)-5H,7H-benzo[b]pyrimido[4,5-d]azepin-6-one]
  pIC50: ≥ 5.30

## O=C1Cc2cnc(Nc3ccc(CCCN4CCCC4)cc3)nc2-c2ccc(Cl)cc2N1 [Compound I-66, 9-Chloro-2-[4-(3-pyrrolidin-1-yl-propyl)-phenylamino]-5H,7H-benzo[b]pyrimido[4,5-d]-azepin-6-one]
  pIC50: ≥ 5.30

## C#Cc1ccc2c(c1)NC(=O)Cc1cnc(Nc3ccc(OC)c(OC)c3)nc1-2 [Compound I-33, 2-(3,4-dimethoxy-phenylamino)-9-ethynyl-5H,7H-benzo[b]pyrimido[4,5-d]azepin-6-one]
  pIC50: ≥ 5.30

## O=C1Cc2cnc(Nc3cccc(C#CCN4CCCC4)c3)nc2-c2ccc(Cl)cc2N1 [Compound I-89, 9-Chloro-2-[3-(3-pyrrolidin-1-yl-prop-1-ynyl)-phenylamino]-5H,7H-benzo[b]-pyrimido[4,5-d]azepin-6-one]
  pIC50: ≥ 5.30

## COc1ccc(Nc2ncc3c(n2)-c2ccc(CCCN(C)C)cc2NC(=O)C3)cc1OC [Compound I-88, 2-(3,4-Dimethoxy-phenylamino)-9-(3-dimethylamino-propyl)-5H,7H-benzo[b]pyrimido[4,5-d]azepin-6-one]
  pIC50: ≥ 5.30

## COc1ccc(Nc2ncc3c(n2)-c2ccc(CCCO)cc2NC(=O)C3)cc1OC [Compound I-81, 2-(3,4-Dimethoxy-phenylamino)-9-(3-hydroxy-propyl)-5H,7H-benzo[b]pyrimido[4,5-d]azepin-6-one]
  pIC50: ≥ 5.30

## COc1ccc(Nc2ncc3c(n2)-c2cc(Cl)ccc2NC(=O)C3)cc1OC [Compound I-24, 10-Chloro-2-(3,4-dimethoxy-phenylamino)-5H,7H-benzo[b]pyrimido[4,5-d]azepin-6-one]
  pIC50: ≥ 5.30

## CN1C(=O)Cc2cnc(Nc3ccc(C(=O)O)cc3)nc2-c2ccc(Cl)cc21 [Compound I-7, 4-(9-Chloro-7-methyl-6-oxo-6,7-dihydro-5H-benzo[b]pyrimido[4,5-d]azepin-2-ylamino)-benzoic acid]
  pIC50: ≥ 5.30

## CCc1ccc2c(c1)NC(=O)Cc1cnc(Nc3ccc(OC)c(OC)c3)nc1-2 [Compound I-37, 2-(3,4-Dimethoxy-phenylamino)-9-ethyl-5H,7H-benzo[b]pyrimido[4,5-d]azepin-6-one]
  pIC50: ≥ 5.30

## Cc1ccc2c(c1)NC(=O)Cc1cnc(Nc3ccc(C(=O)O)cc3)nc1-2 [Compound I-9, 4-(9-Methyl-6-oxo-6,7-dihydro-5H-benzo[b]pyrimido[4,5-d]azepin-2-ylamino)-benzoic acid]
  pIC50: ≥ 5.30
